The other results are listed elsewhere or left out.
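Further: competitive chemoproteomic profiling in live THP-1 cells with an iodoacetamide desthiobiotin (IA-DTB) probe, comparing probe-labelled peptide intensities in compound-treated cells against DMSO-treated controls.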

Chains of the proteins cited; added tags and fusions are not shown. Lines headed by an entry give the natural chain unless they say otherwise; changes in a name come on top.
UniProt Q99704: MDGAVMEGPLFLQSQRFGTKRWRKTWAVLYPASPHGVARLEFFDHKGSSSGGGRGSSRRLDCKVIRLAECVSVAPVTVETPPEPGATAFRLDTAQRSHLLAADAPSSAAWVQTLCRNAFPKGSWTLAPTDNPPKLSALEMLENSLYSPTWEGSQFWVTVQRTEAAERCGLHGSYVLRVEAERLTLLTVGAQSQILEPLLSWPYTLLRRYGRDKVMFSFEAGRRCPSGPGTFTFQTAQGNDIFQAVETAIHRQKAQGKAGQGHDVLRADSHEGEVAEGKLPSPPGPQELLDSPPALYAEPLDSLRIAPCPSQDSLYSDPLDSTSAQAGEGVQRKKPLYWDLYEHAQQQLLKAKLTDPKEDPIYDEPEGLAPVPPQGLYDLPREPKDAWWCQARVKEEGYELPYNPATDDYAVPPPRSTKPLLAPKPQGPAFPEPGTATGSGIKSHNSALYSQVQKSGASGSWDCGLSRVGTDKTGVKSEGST
UniProt Q96BY6: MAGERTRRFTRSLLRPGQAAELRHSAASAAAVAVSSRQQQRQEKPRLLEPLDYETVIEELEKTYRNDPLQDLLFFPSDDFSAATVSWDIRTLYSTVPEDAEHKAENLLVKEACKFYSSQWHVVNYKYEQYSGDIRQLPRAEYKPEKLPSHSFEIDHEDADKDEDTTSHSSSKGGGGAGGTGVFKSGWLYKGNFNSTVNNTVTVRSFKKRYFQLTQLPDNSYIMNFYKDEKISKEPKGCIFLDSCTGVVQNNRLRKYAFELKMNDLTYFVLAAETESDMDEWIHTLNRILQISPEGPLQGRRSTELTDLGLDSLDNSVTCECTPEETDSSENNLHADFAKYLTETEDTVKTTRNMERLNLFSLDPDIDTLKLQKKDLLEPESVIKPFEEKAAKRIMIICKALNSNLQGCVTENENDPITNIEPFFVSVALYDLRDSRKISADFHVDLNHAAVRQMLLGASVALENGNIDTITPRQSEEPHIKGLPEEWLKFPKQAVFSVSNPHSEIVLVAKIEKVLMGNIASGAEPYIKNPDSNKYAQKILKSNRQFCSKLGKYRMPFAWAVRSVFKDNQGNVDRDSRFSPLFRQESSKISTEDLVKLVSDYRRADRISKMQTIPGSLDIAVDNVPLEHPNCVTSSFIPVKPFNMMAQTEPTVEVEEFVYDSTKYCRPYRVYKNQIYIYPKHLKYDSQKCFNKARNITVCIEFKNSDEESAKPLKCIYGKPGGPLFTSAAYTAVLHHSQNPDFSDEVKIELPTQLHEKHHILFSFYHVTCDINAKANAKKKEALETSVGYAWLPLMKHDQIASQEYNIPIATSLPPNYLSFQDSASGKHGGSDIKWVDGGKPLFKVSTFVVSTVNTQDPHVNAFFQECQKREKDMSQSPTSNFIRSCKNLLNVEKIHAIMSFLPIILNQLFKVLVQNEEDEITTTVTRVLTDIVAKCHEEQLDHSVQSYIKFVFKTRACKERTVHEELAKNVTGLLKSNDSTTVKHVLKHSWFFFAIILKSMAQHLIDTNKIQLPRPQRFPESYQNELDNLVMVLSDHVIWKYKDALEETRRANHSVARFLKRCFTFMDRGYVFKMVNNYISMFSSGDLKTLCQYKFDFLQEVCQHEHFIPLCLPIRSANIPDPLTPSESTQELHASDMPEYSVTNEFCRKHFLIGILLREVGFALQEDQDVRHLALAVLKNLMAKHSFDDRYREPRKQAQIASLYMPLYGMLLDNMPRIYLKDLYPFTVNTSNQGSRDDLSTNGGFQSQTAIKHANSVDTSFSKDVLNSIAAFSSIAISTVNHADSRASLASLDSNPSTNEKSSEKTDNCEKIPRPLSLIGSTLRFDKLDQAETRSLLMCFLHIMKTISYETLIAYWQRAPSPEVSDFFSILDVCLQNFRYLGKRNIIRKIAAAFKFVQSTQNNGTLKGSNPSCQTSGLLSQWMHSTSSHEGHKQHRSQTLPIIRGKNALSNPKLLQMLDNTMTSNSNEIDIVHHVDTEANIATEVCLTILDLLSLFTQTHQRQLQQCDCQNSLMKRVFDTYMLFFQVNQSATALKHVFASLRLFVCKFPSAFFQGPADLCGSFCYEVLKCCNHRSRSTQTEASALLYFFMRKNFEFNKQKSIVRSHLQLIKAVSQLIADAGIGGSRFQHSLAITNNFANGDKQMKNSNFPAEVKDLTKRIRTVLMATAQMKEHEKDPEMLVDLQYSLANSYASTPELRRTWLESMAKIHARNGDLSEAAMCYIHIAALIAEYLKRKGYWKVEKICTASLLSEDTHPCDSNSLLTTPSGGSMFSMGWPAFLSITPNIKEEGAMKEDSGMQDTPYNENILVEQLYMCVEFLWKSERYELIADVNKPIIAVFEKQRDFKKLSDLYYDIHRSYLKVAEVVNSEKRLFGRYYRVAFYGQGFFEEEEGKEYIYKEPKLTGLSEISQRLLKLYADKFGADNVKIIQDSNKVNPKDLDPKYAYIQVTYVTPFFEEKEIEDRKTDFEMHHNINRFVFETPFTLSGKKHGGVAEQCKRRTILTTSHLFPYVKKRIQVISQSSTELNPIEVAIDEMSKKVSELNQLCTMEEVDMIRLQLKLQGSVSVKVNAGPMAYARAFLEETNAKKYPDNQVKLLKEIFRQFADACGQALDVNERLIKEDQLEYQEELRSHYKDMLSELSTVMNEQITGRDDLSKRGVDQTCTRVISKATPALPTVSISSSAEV
UniProt Q8NF50: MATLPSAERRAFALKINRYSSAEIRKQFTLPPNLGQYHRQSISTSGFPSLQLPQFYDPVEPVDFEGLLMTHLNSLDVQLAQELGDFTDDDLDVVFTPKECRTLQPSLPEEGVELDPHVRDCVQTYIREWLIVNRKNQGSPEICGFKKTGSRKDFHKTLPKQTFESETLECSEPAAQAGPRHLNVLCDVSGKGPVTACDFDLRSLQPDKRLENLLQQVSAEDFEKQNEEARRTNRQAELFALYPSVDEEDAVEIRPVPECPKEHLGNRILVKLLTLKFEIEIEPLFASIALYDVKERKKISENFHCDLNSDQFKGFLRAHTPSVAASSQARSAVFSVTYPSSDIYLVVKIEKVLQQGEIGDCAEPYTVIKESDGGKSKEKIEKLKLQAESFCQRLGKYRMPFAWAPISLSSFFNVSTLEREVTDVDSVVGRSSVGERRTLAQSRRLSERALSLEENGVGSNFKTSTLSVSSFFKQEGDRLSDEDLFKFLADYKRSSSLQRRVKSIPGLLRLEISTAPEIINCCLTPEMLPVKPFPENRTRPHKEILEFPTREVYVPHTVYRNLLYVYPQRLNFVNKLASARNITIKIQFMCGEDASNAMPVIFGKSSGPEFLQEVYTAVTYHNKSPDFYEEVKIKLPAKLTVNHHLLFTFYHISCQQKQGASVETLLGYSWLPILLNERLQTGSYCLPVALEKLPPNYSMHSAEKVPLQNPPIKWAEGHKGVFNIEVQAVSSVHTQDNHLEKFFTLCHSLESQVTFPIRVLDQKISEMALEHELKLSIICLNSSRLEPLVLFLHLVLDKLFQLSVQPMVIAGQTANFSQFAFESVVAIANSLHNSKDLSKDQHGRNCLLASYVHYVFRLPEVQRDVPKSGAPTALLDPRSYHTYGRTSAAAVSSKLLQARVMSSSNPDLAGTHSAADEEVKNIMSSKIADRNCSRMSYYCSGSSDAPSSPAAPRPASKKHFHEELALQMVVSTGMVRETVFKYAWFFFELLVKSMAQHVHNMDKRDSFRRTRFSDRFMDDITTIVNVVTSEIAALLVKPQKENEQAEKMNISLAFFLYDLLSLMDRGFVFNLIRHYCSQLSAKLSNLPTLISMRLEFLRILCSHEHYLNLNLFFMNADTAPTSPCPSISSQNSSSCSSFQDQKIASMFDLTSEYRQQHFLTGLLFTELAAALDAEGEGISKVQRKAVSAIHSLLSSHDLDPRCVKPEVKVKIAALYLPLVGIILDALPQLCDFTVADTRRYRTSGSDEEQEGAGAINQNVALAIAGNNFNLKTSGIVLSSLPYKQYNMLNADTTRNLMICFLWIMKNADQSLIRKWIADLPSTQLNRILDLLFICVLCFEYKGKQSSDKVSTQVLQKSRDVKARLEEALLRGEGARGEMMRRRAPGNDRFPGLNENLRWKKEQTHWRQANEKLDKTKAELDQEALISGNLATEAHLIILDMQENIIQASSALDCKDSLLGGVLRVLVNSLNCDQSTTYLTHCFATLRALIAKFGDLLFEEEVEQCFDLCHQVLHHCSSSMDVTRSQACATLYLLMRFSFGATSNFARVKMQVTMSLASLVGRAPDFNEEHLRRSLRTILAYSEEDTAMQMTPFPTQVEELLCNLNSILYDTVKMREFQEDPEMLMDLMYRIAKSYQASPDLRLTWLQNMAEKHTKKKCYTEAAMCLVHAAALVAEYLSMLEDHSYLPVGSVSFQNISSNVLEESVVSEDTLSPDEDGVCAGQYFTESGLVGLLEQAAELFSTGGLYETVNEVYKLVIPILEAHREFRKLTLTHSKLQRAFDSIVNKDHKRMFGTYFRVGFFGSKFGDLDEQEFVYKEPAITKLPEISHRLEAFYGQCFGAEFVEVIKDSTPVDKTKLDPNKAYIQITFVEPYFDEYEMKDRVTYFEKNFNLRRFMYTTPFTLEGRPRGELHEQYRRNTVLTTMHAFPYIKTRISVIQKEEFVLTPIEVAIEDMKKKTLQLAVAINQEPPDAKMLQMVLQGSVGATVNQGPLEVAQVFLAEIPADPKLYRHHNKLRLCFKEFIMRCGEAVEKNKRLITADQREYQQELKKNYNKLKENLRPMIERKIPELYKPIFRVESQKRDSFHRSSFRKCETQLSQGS
UniProt Q9H147: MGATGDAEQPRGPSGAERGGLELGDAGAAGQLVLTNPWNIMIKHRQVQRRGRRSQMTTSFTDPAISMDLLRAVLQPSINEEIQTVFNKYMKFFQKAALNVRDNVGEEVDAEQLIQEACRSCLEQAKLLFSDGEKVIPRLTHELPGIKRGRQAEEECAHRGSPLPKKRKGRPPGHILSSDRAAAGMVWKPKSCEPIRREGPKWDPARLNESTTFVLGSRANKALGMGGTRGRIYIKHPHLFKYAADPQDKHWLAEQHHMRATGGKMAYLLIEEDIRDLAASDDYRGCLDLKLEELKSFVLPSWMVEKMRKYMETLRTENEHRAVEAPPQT
UniProt Q9H410: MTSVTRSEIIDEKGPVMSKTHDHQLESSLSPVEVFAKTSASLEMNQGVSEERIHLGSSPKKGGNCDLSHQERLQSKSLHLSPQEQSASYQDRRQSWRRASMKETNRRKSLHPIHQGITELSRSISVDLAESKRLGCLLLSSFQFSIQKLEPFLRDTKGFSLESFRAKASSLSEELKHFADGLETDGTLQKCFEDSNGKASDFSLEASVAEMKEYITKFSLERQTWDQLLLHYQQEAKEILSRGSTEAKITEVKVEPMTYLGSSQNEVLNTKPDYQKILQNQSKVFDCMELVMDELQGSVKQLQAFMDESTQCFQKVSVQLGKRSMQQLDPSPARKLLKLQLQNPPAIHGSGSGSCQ
UniProt Q96CJ1: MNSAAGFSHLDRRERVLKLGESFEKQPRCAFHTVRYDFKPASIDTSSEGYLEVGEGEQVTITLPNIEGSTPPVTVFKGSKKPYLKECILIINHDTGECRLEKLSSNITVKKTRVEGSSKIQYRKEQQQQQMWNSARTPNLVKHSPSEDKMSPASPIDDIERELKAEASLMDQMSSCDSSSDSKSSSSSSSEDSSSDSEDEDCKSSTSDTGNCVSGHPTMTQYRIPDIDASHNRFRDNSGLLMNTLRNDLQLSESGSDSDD
UniProt Q9BU89: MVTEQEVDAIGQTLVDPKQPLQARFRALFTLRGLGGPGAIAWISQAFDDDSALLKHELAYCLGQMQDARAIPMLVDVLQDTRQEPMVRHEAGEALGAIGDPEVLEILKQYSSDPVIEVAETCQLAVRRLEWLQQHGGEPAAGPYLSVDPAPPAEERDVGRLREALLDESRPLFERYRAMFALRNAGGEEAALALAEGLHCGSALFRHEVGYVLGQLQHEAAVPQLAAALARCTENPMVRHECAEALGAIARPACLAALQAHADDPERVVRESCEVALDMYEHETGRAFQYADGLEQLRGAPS
UniProt Q7L591: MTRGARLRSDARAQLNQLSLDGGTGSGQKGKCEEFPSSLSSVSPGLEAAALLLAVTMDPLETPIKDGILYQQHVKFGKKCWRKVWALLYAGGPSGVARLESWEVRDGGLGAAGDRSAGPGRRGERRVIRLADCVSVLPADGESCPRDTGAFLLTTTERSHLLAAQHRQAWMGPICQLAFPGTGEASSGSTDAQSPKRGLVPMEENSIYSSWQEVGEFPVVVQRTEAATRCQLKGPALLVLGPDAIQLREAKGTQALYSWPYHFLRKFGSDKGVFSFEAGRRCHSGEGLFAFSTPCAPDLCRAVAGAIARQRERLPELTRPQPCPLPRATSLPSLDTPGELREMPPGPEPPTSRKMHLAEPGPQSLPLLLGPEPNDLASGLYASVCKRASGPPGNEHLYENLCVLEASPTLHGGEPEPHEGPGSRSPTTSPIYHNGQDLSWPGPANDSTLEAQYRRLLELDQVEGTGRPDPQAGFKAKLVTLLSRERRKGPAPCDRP

Compound in the assay: CC1Cc2ccccc2N1C(=O)C1CCCN(C1)C(=O)CCl (mixture of isomers) [TRIM25 ligand 11 (diastereomer mixture)]
Nature of the assay: probe-labelled cysteine peptide fold change vs DMSO (competition) (log2 fold change); higher = less target engagement (more negative = stronger competition). The settings on record: 50 µM; THP-1; incubation time: 4 h.
As to “DOK1_Q99704_389_DAWWCQAR (UniProt Q99704)”, the “probe-labelled cysteine peptide fold change” value is -0.0503.
Consider “DPYD_Q12882_671_SEDSGADALELNLSCPHGMGER (UniProt Q12882)”, for which the “probe-labelled cysteine peptide fold change” value is 0.0557.
As for “DOCK10_Q96BY6_936_CHEEQLDHSVQSYIK (UniProt Q96BY6)”, the “probe-labelled cysteine peptide fold change” value was found to be 0.0713.
Next, “DOCK8_Q8NF50_391_LQAESFCQR (UniProt Q8NF50)”: 0.0348; “DNTTIP1_Q9H147_156_QAEEECAHR (UniProt Q9H147)”: -0.232.
Next, “DSN1_Q9H410_65_GGNCDLSHQER (UniProt Q9H410)”: -0.0321.
To “DUSP27_Q5VZP5_912_SNSQKPETDTCSSLAVCDHYASGSR (UniProt Q5VZP5)” belongs -0.328.
For the target “DYNC1H1_Q14204_867_SLETCMYDHK (UniProt Q14204)”, the “probe-labelled cysteine peptide fold change” value amounted to 0.0115.
Next, “DOCK8_Q8NF50_685_LQTGSYCLPVALEK (UniProt Q8NF50)”: -0.032; “DYNC1H1_Q14204_2454+2466_CLGSLFSMLHQACR (UniProt Q14204)”: 0.0587; “DPYSL2_Q16555_133_SCCDYSLHVDISEWHK (UniProt Q16555)”: -0.000105.
Next, “EAF2_Q96CJ1_98_ECILIINHDTGECR (UniProt Q96CJ1)”: 0.01; “DXO_O77932_108_DEEVQERLDHLLCWLLEHR (UniProt O77932)”: 0.218.
Next, “DUSP12_Q9UNI6_115_AVLVHCHAGVSR (UniProt Q9UNI6)”: 0.202.
“EAF1_Q96JC9_86_DCVLIINHDTGEYVLEK (UniProt Q96JC9)”: the “probe-labelled cysteine peptide fold change” value was 0.153.
To “DNMT1_P26358_691_CPNMAMK (UniProt P26358)” belongs -0.37; to “DUSP23_Q9BVJ7_108_TGTMLACYLVK (UniProt Q9BVJ7)”, 0.174; to “DSN1_Q9H410_191_CFEDSNGK (UniProt Q9H410)”, 0.0971.
Regarding “EARS2_Q5JPH6_140_TGAAYPCFCSPQR (UniProt Q5JPH6)”, the “probe-labelled cysteine peptide fold change” value was found to be 0.0707.
Next, “DSN1_Q9H410_65_KGGNCDLSHQER (UniProt Q9H410)”: -0.238.
Next, “DPH2_Q9BQC3_157_APVVLLSEPACAHALEALATLLRPR (UniProt Q9BQC3)”: -0.0956.
To “DOHH_Q9BU89_242_HECAEALGAIAR (UniProt Q9BU89)” belongs 0.13; to “DSTN_P60981_46_KCIIVEEGK (UniProt P60981)”, -0.13.
Regarding “DYNC1H1_Q14204_2639_TFDHYCEYRR (UniProt Q14204)”, the “probe-labelled cysteine peptide fold change” value was -0.106.
To “DPP9_Q86TI2_259_FTGYWWCPTASWEGSEGLK (UniProt Q86TI2)” belongs 0.118.
Next, “DTYMK_P23919_31_KLVEALCAAGHR (UniProt P23919)”: -0.0145; “DOK3_Q7L591_323_ERLPELTRPQPCPLPR (UniProt Q7L591)”: -0.0699.
To “DOP1B_Q9Y3R5_2199_WAFIPEVDTEGPAFLSDVEENHQECKPHTVR (UniProt Q9Y3R5)” belongs -0.0631.
On to “DPH5_Q9H2P9_161_QNGMHTLCLLDIK (UniProt Q9H2P9)”, for which the “probe-labelled cysteine peptide fold change” value was -0.0215.
Next, “DOCK10_Q96BY6_1112_FDFLQEVCQHEHFIPLCLPIR (UniProt Q96BY6)”: -0.13; “DNMT3A_Q9Y6K1_911_EYFACV (UniProt Q9Y6K1)”: -0.0101.
Next, “DOCK7_Q96N67_1710_SNHAEAAQCLVHSAALVAEYLSMLEDRK (UniProt Q96N67)”: -0.182; “DOCK8_Q8NF50_590_IQFMCGEDASNAMPVIFGK (UniProt Q8NF50)”: 0.209.
To “DOCK11_Q5JSL3_1641_NGDFSEAAMCYVHVAALVAEFLHR (UniProt Q5JSL3)” belongs 0.125; to “DOT1L_Q8TEK3_1075_GDCVPSHGQDSR (UniProt Q8TEK3)”, -0.0408.

For the origin of these results see the supplement of paper PMC12067093, “Discovery and optimisation of a covalent ligand for TRIM25 and its application to targeted protein ubiquitination” (Chemical Science, 2025).
